In US20250223580A1:
These are yes or no findings as the source states them, for the method shown. A result given as binding can be weak or reduced; the word gives no strength. Sequences can lack the tags named with a protein. For some assays here: Binding seen in cells or lysates may run through a third protein.

Experiments:
[1] = target: dCas7-11 (Cas7-11 D429A/D654A) as it stands in the cryo-EM complexes (Desulfonema ishimotonii); experiment: single particle cryo-EM
[2] = target: Cas7-11 from Desulfonema ishimotonii (Desulfonema ishimotonii); experiment: tandem affinity co-purification from E. coli
[3] = target: Cas7-11 from Desulfonema ishimotonii (Desulfonema ishimotonii); experiment: tandem affinity co-purification from E. coli (Strep-Tactin on Cas7-11, Ni-NTA on Csx29)
[4] = target: Cas7-11 from Desulfonema ishimotonii (Desulfonema ishimotonii); experiment: tandem affinity co-purification of the Cas7-11-Csx29 complex, SDS-PAGE stained with Coomassie
[5] = target: Cas7-11 from Desulfonema ishimotonii (Desulfonema ishimotonii); experiment: tandem affinity co-purification (Streptactin on the Cas7-11 tag, then Ni-NTA on the Csx29 tag) with crRNA coexpressed, SDS-PAGE stained with Coomassie

- binding [1]: binds
- binding [2]: binds
- binding [3]: binds
- binding [4]: binds
- binding [5]: binds
B1: Csx29 (TPR-CHAT protease) from Desulfonema ishimotonii, 6xHis-tagged (enzyme, not shown: small tags and cut ends)
chain: MSNPIRDIQDRLKTAKFDNKDDMMNLASSLYKYEKQLMDSSEATLCQQGLSNRPNSFSQLSQFRDSDIQSKAGGQTGKFWQNEYEACKNFQTHKERRETLEQIIRFLQNGAEEKDADDLLLKTLARAYFHRGLLYRPKGFSVPARKVEAMKKAIAYCEIILDKNEEESEALRIWLYAAMELRRCGEEYPENFAEKLFYLANDGFISELYDIRLFLEYTEREEDNNFLDMILQENQDRERLFELCLYKARACFHLNQLNDVRIYGESAIDNAPGAFADPFWDELVEFIRMLRNKKSELWKEIAIKAWDKCREKEMKVGNNIYLSWYWARQRELYDLAFMAQDGIEKKTRIADSLKSRTTLRIQELNELRKDAHRKQNRRLEDKLDRIIEQENEARDGAYLRRNPPCFTGGKREEIPFARLPQNWIAVHFYLNELESHEGGKGGHALIYDPQKAEKDQWQDKSFDYKELHRKFLEWQENYILNEEGSADFLVTLCREIEKAMPFLFKSEVIPEDRPVLWIPHGFLHRLPLHAAMKSGNNSNIEIFWERHASRYLPAWHLFDPAPYSREESSTLLKNFEEYDFQNLENGEIEVYAPSSPKKVKEAIRENPAILLLLCHGEADMTNPFRSCLKLKNKDMTIFDLLTVEDVRLSGSRILLGACESDMVPPLEFSVDEHLSVSGAFLSHKAGEIVAGLWTVDSEKVDECYSYLVEEKDFLRNLQEWQMAETENFRSENDSSLFYKIAPFRIIGFPAE
